The other results are listed elsewhere or left out.
Key:
Assay in all cases: glycan array binding signal (z-score within array); higher = stronger binding
Settings in all cases: glycan notation: IUPAC condensed, linker removed
[1] = biological target: Fuc(a1-2)Gal(b1-4)GlcNAc(b1-2)Man(a1-3)[Fuc(a1-2)Gal(b1-4)GlcNAc(b1-2)Man(a1-6)]Man(b1-4)GlcNAc(b1-4)GlcNAc
How it was run: (§1)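 Arrays were curated from the Consortium for Functional Glycomics database, 3228 in total, and kept only where the protein sequence was available. Binding is expressed as a within-array Z-score. This score was averaged across arrays of the same protein sequence at different concentrations or buffers and across linkers, and negative values can be read as non-binding.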

[2] = biological target: Fuc(a1-2)Gal(b1-4)GlcNAc(b1-2)Man(a1-3)[Fuc(a1-2)Gal(b1-4)GlcNAc(b1-2)Man(a1-6)]Man(b1-4)GlcNAc(b1-4)[Fuc(a1-6)]GlcNAc
How it was run: as §1

[3] = biological target: Fuc(a1-2)Gal(b1-4)GlcNAc(b1-2)[Fuc(a1-2)Gal(b1-4)GlcNAc(b1-4)]Man(a1-3)[Fuc(a1-2)Gal(b1-4)GlcNAc(b1-2)Man(a1-6)]Man(b1-4)GlcNAc(b1-4)GlcNAc
How it was run: as §1

[4] = biological target: Fuc(a1-2)Gal(b1-4)GlcNAc(b1-3)Gal(b1-4)GlcNAc
How it was run: as §1

[5] = biological target: Fuc(a1-2)Gal(b1-4)GlcNAc(b1-3)Gal(b1-4)GlcNAc(b1-3)Gal(b1-4)GlcNAc
How it was run: as §1

[6] = biological target: Fuc(a1-2)Gal(b1-4)GlcNAc(b1-3)GalNAc
How it was run: as §1

[7] = biological target: Fuc(a1-2)Gal(b1-4)GlcNAc(b1-3)[Fuc(a1-2)Gal(b1-4)GlcNAc(b1-6)]GalNAc
How it was run: as §1

[8] = biological target: Fuc(a1-2)Gal(b1-4)GlcNAc6S
How it was run: as §1

[9] = biological target: Fuc(a1-2)Gal(b1-4)[Fuc(a1-3)]GlcNAc
How it was run: as §1

[10] = biological target: Fuc(a1-2)Gal(b1-4)[Fuc(a1-3)]GlcNAc(b1-2)Man(a1-3)[Fuc(a1-2)Gal(b1-4)[Fuc(a1-3)]GlcNAc(b1-2)Man(a1-6)]Man(b1-4)GlcNAc(b1-4)GlcNAc
How it was run: as §1

[11] = biological target: Fuc(a1-2)Gal(b1-4)[Fuc(a1-3)]GlcNAc(b1-2)[Fuc(a1-2)Gal(b1-4)[Fuc(a1-3)]GlcNAc(b1-4)]Man(a1-3)[Fuc(a1-2)Gal(b1-4)[Fuc(a1-3)]GlcNAc(b1-2)Man(a1-6)]Man(b1-4)GlcNAc(b1-4)GlcNAc
How it was run: as §1

[12] = biological target: Fuc(a1-2)Gal(b1-4)[Fuc(a1-3)]GlcNAc(b1-3)Gal(b1-4)[Fuc(a1-3)]GlcNAc
How it was run: as §1

[13] = biological target: Fuc(a1-2)Gal(b1-4)[Fuc(a1-3)]GlcNAc(b1-3)Gal(b1-4)[Fuc(a1-3)]GlcNAc(b1-3)Gal(b1-4)[Fuc(a1-3)]GlcNAc
How it was run: as §1

[14] = biological target: Fuc(a1-2)Gal(b1-4)[Fuc(a1-3)]GlcNAc(b1-3)GalNAc
How it was run: as §1

Fuc(a1-2)Gal6S(b1-4)Glc = biological target: Fuc(a1-2)Gal6S(b1-4)Glc
How it was run: as §1

[15] = biological target: Fuc(a1-2)Gal6S(b1-4)Glc6S
How it was run: as §1

[16] = biological target: Fuc(a1-2)Gal6S(b1-4)GlcNAc
How it was run: as §1

Fuc(a1-2)[Gal(a1-3)]Gal = biological target: Fuc(a1-2)[Gal(a1-3)]Gal
How it was run: as §1

[17] = biological target: Fuc(a1-2)[Gal(a1-3)]Gal(b1-3)GalNAc
How it was run: as §1

[18] = biological target: Fuc(a1-2)[Gal(a1-3)]Gal(b1-3)GlcNAc
How it was run: as §1

[19] = biological target: Fuc(a1-2)[Gal(a1-3)]Gal(b1-3)GlcNAc(b1-2)Man(a1-3)[Fuc(a1-2)[Gal(a1-3)]Gal(b1-3)GlcNAc(b1-2)Man(a1-6)]Man(b1-4)GlcNAc(b1-4)GlcNAc
How it was run: as §1

[20] = biological target: Fuc(a1-2)[Gal(a1-3)]Gal(b1-3)GlcNAc(b1-2)Man(a1-3)[Fuc(a1-2)[Gal(a1-3)]Gal(b1-3)GlcNAc(b1-2)Man(a1-6)]Man(b1-4)GlcNAc(b1-4)[Fuc(a1-6)]GlcNAc
How it was run: as §1

[21] = biological target: Fuc(a1-2)[Gal(a1-3)]Gal(b1-3)GlcNAc(b1-3)GalNAc
How it was run: as §1

B1: RetS (Pseudomonas aeruginosa), Q9HUV7 (protein)
chain: MVRLRIAIGLLVSFLLLLLGPMSPAVADDAGVSSVPLQTTATTPSANQNWRLLRDESAQLRIADVLQRKEQFRPLAKRSFIFPASPQAVWLQVQLPAQKVPSWLWIFAPRVQYLDYYLVQDGQLVRDQHTGESRPFQERPLPSRSYLFSLPVDGKPMTLYVRMTSNHPLMAWFDQIDEAGLVGLEKPAYAFGMLLGGMLLLLMYNLIRFAYSRSASSLWLAAVHAALAVCAAANLGLVAFWLPGLKFNQSLTADLGALGAAVSLLWFACSFFRGTAESRLNRLLQGEALLILAVGAIIAFTQQLWFSWLIYLLVILSSLSVPLIAAWHWYRGYQPARLIVAGMIVFNAGFMVFLPVLFGTKQLDPGWLVLGVFSFATLAGLVLSVSLTERQRLIQQLNLQQRTSEAAHTAELQTKAEFLAKISHEIRTPMNGVLGMTELLLGTPLSAKQRDYVQTIHSAGNELLTLINEILDISKLESGQIELDEVQFDLNALIEDCLDIFRVKAEQQRIELISFTQPQVPRVIGGDPTRLRQVVLSLLDNAFKQTEEGEILLVVALDDQGETPRLRIAVQDSGHPFDAKEREALLTAELHSGDFLSASKLGSHLGLIIARQLVRLMGGEFGIQSGSSQGTTLSLTLPLDPQQLENPTADLDGPLQGARLLVVDDNETCRKVLVQQCSGWGLNVSAVSSGKEALAQLRTKAHLREYFDVVLLDQDMPGMTGMQLAAKIKEDPNLNHDILLIMLTGISNAPSKIIARNAGIKRILAKPVAGYTLKATLADELAQRGVSGVTNYLQPAKEAQAPSLPSDFRILVAEDNSISTKVIRGMLNKLNLQPDTASNGQEALSAMKATQYDLVLMDCEMPVLDGFSATEQLRAWEAHEQRPHTPVVALTAHILSEHKERARLVGMDGHMAKPVELSQLRELIAYWVGERDRRRQGDALPS
In the case of B1, the “glycan array binding signal (z-score)” value [1] is reported as 0.8, the “glycan array binding signal (z-score)” value [2] is reported as -1.24 and the “glycan array binding signal (z-score)” value [3] is reported as -0.527. For the same binder, the “glycan array binding signal (z-score)” value [4] was -0.677, the “glycan array binding signal (z-score)” value [5] was 0.275 and the “glycan array binding signal (z-score)” value [6] was 0.495. For the same binder, the “glycan array binding signal (z-score)” value [7] was 0.163, the “glycan array binding signal (z-score)” value [8] was 0.503 and the “glycan array binding signal (z-score)” value [9] was -0.272. The “glycan array binding signal (z-score)” value [10] was -1.23, the “glycan array binding signal (z-score)” value [11] was 0.111 and the “glycan array binding signal (z-score)” value [12] was 0.036. The “glycan array binding signal (z-score)” value [13] was -0.117, the “glycan array binding signal (z-score)” value [14] was 1.16 and the “glycan array binding signal (z-score)” value (Fuc(a1-2)Gal6S(b1-4)Glc) was -0.311. For the same binder, the “glycan array binding signal (z-score)” value [15] was 2.62, the “glycan array binding signal (z-score)” value [16] was 0.722 and the “glycan array binding signal (z-score)” value (Fuc(a1-2)[Gal(a1-3)]Gal) was -0.377. For the same binder, the “glycan array binding signal (z-score)” value [17] was 0.263, the “glycan array binding signal (z-score)” value [18] was -0.371 and the “glycan array binding signal (z-score)” value [19] was 0.637. The “glycan array binding signal (z-score)” value [20] was 2.79 and the “glycan array binding signal (z-score)” value [21] was -0.488.

From the supplement of paper PMC8728848
